In US20090118165A1 (CASE WESTERN RESERVE UNIVERSITY, published 2009) one finds binding data, which are given here for 3 molecules.

By UniProt entry, the sequences of proteins in these tests, tags left out.
UniProt Q07812: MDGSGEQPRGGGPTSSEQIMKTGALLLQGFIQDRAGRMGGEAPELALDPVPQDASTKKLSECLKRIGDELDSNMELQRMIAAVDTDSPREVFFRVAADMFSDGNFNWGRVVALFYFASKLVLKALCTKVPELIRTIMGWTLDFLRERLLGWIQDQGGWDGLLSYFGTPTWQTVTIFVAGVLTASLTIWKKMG

No constants are given. Whether binding was seen depends on the method and setting. In cells and extracts the contact can be indirect. Some binding calls cover weakened binding; strength is not graded here.

The assay has as its target Bax (endogenous, in lysate of human Dami megakaryocytic cells) (human) (UniProt Q07812). As to the kind of experiment: pull-down of biotin-labeled peptide (200 µM) with streptavidin beads from Dami cell lysate, Western blot with anti-Bax antibody.
Take VPALR (biotin label (position not given)) [biotin-labeled VPALR (SEQ ID NO:6), rat version of Bax-inhibiting peptide]: the binding result was “binds”.

In the case of VPMLK (biotin label (position not given)) [biotin-labeled VPMLK (SEQ ID NO:2), human version of Bax-inhibiting peptide], the binding result is “binds”.

Turning to VPTLK (biotin label (position not given)) [biotin-labeled VPTLK (SEQ ID NO:5), mouse version of Bax-inhibiting peptide], the binding entry is recorded as “binds”.
